# According to PubChem BioAssay AID504834 (National Center for Advancing Translational Sciences (NCATS), 2011):
# The whole screen tested about 320,000 compounds, of which about 22,000 (6.9%) were called active. Inconclusive means that the source gave no clear call. Such entries were picked first, then a sample of the others. Calls come from the whole dose curve; as a rule, active = well fitted inhibition curve with a large enough effect; inconclusive = small, poorly fitted or top-dose-only effect, or another doubt; inactive = no such curve, though single readings can be large or run the other way. Potencies beside an inconclusive call are fits to weak or partial responses and may not hold up.
# Assay: Primary qHTS for delayed death inhibitors of the malarial parasite plastid, 96 hour incubation
# Settings: P. falciparum luciferase reporter growth; series mostly up to 28.7 µM; activity change, negative = inhibition: at the top concentration
# Method in brief: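 Readout is luminescence from an integrated firefly luciferase in P. falciparum. Red cells, 2% hematocrit and 0.05% parasitemia final, were cultured with compound through two parasite generations (96 hours) at 37 C, 5% CO2.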
# % is set by controls: 0 for no effect and ±100 for the full control effect; potency is the fitted concentration of half-maximal effect.
Structure (SMILES),Potency,"activity change, negative = inhibition"
Cc1cccc(NC(=O)c2ccc(OC3CSC3)cc2)c1,"inconclusive: 18.5 µM [inhibitor, single point]",–
O=C(Nc1cccn(Cc2c(Cl)cccc2Cl)c1=O)c1ccccc1Cl,"inconclusive: 10.4 µM [inhibitor, partial curve, poor fit]",–
O=C(NCc1ccc2c(c1)OCO2)c1ccc(Br)cc1,–,inactive: -10.8%
CSc1ccc(NC(=O)Nc2ccc(C(=O)NCC(=O)O)cc2)cc1,–,inactive: 4.58%
COc1ccc(CN2CCCC(N3CCN(c4ccc(OC)cc4)CC3)C2)cc1 (centres undefined),–,inactive: -14.6%
CCOc1ccc(N(CC(=O)Nc2ccc(C)c(C)c2)S(=O)(=O)c2c(C)noc2C)cc1,"inconclusive: 10.4 µM [inhibitor, single point]",–
CCOC(=O)C1CCN(S(=O)(=O)c2cc3c(cc2C)NC(=O)CO3)CC1,"inconclusive: 0.0029 µM [inhibitor, full curve, poor fit]",–
O=C(NCc1cccnc1)c1ccc(CN2CCc3ccccc3C2)cc1,–,inactive: 25.1%
CCCC[C@@H]1CNCCN1CCc1cc(C(F)(F)F)cc(C(F)(F)F)c1,"inconclusive: 7.38 µM [inhibitor, partial curve]",–
CCOc1cc(N2CCOCC2)c(OCC)cc1NC(=O)c1ccc2ccccc2n1,"inconclusive: 18.5 µM [inhibitor, single point]",–
N=c1c(C(=O)NC2CCCCC2)cc2c(=O)n3ccccc3nc2n1Cc1ccc(F)cc1,"inconclusive: 4.15 µM [inhibitor, single point]",–
COc1ccc(-c2nc(CN3CCN(Cc4ccccc4)CC3)c(C)o2)cc1,–,inactive: 0.208%
CC(=O)c1ccc(NC(=S)N(CCCN(C)C)Cc2ccccc2)cc1,"inconclusive: 5.86 µM [inhibitor, partial curve, poor fit]",–
CC(=O)Nc1ccc(NC(=O)c2ccc3c(c2)C(=O)N(c2ccccc2C)C3=O)cc1,–,inactive: -5.53%
Cc1cc(C)c(Nc2cc(S(=O)(=O)O)c(N)c3c2C(=O)c2ccccc2C3=O)c(C)c1,"inconclusive: 18.5 µM [inhibitor, single point]",–
O=C(Nc1ccc(S(=O)(=O)N2CCCCC2)cc1)c1cccnc1Cl,"inconclusive: 13.1 µM [inhibitor, single point]",–
CC(=O)Nc1ccc(/C=C/C(=O)c2ccc3c(c2)OCCO3)cc1,"inconclusive: 6.57 µM [inhibitor, partial curve]",–
CC1c2cc3c(cc2CCN1S(=O)(=O)c1ccccc1)OCCCO3 (centres undefined),–,inactive: -10.9%
Cc1ccc(C(=O)Nc2cccc(S(=O)(=O)N3CCCC3)c2)o1,"inconclusive: 18.5 µM [inhibitor, single point]",–

# Single entries from above.
# `COc1ccc(CN2CCCC(N3CCN(c4ccc(OC)cc4)CC3)C2)cc1` (centres undefined) | activity change, negative = inhibition: inactive: -14.6%
# `CCCC[C@@H]1CNCCN1CCc1cc(C(F)(F)F)cc(C(F)(F)F)c1` | Potency: inconclusive: 7.38 µM [inhibitor, partial curve]
